Assay results from patent publication US10172816B2, “Method of treating chronic obstructive pulmonary disease (CPD) with verproside” (YUNGJIN PHARMACEUTICAL CO., LTD, priority 2013, dated 2019).
Some entries share one result that the patent states for a list of compounds.

Test system: inflammatory immunocytes and neutrophils in BALF
Experiment: COPD mouse model (LPS+CS, i.t.): immunocytes, neutrophils and T lymphocytes in BALF
Format: in vivo, BALB/c mice
Settings: 15 mg/kg, p.o.
Protocol: Specific pathogen-free male BALB/c mice (about 18-20 g), aged 8 weeks, which were routinely screened serologically for relevant respiratory pathogens, were purchased from ORIENT Co. (www.orient.co.kr, Seoul, Korea) and bred allowing to access freely to feed and water in breeding room controlling the temperature of 22±2° C., and humidity of 55±15% at the light-dark cycle for 12 hours and acclimated with the experimental environment for 1 week. […] 8 weeks aged BALB/c male mice was anaesthetized with 7% chloral hydrate and 100 μl of LPS+CS mixture {LPS (100 μg/ml)+standard cigarette extract (Cigarette smoking (CS), 4 mg/ml)=1:1} was inhaled to mice (i.t.) for three weeks once a week to prepare COPD animal model. Briefly, 100 μl of LPS+CS mixture was evenly inhaled to nose and mouth of fastened mice (i.t). […] After the end of experiment, the blood, BALF, and pneumonocyte of each mice were isolated and collected to test. […] After the reaction, the cells were washed with phosphate buffered physiological saline solution more than three times and the cell frequency (%) of CD3^+CD4^+& CD3^+CD8^+, and Gr-1^+Neutrophil^+ was determined using by Cell Quest program (643274, BD Biosciences, USA) of the flow cytometer (FACSCalibur, Becton, Dickinson, USA) and the absolute total number in each tissue was calculated by applying total cells.

## O=C(Nc1c(Cl)cncc1Cl)c1ccc(OC(F)F)c(OCC2CC2)c1 [Roflumilast, reference compound]
  reduction of total absolute cell number of CD4+ T cell in BALF compared with control group: more than 73.2%
